The assay relates to HEK293A TEAD-LUC reporter. Briefly: TEAD-luciferase reporter activity (YAP activation), robust Z score vs plate; higher = stronger YAP/TEAD activation. The note with it: 24 h. In general terms: A reporter such as luciferase makes a cellular process visible.

Drawing on the supplement of paper PMC10735217, this text covers TEAD-luciferase reporter activity for 28 compounds.

Molecules are shown by their SMILES. Where a name gives a salt, the structure may show the parent alone. The list shows a part of the results. This data set is noisy: repeats of one test often differ as much as different tests do.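 In a drug-repurposing library screen, luminescence reads luciferase driven by eight TEAD-binding elements, stably integrated into human kidney-derived cells. Compounds scoring over five robust Z scores above the plate mean are called hits.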

Turning to `O=C(O)C(=O)Nc1cccc(-c2nnn[nH]2)c1` [acitazanolast], the TEAD-luciferase reporter activity (compound concentration: 200 nM) is inactive: 1.43, the TEAD-luciferase reporter activity (compound concentration: 2 uM) is inactive: -0.919 and the TEAD-luciferase reporter activity (compound concentration: 10 uM) is inactive: -0.334.

For `CCO/N=C(\C(=O)N[C@@H]1C(=O)N2C(C(=O)O)=C(Sc3nc(-c4cc[n+](C)cc4)cs3)CS[C@H]12)c1nsc(NP(=O)(O)O)n1` [Ceftaroline fosamil], the TEAD-luciferase reporter activity is inactive: -0.557 (compound concentration: 200 nM), inactive: -1.62 (compound concentration: 2 uM) and inactive: 2.06 (compound concentration: 10 uM).

As for `CC(C)=CCC[C@](C)(O[C@@H]1O[C@H](CO[C@@H]2OC[C@H](O)[C@H](O)[C@H]2O)[C@@H](O)[C@H](O)[C@H]1O)[C@H]1CC[C@]2(C)[C@@H]1[C@H](O)C[C@@H]1[C@@]3(C)CC[C@H](O[C@@H]4O[C@H](CO)[C@@H](O)[C@H](O)[C@H]4O[C@@H]4O[C@H](CO)[C@@H](O)[C@H](O)[C@H]4O)C(C)(C)C3CC[C@]12C` (some centres undefined) [Ginsenoside Rb2], the TEAD-luciferase reporter activity by setting is: (compound concentration: 200 nM) inactive: -0.929; (compound concentration: 2 uM) inactive: 0.623; (compound concentration: 10 uM) inactive: -0.518.

On to `c1cc(OCCCc2nnn[nH]2)cc(OCc2ccc3ccccc3n2)c1`, for which the TEAD-luciferase reporter activity (compound concentration: 200 nM) was inactive: 0.853, the TEAD-luciferase reporter activity (compound concentration: 2 uM) was inactive: -1.36 and the TEAD-luciferase reporter activity (compound concentration: 10 uM) was inactive: 0.0673.

For `CN(C(=O)CO/N=C(\c1ccccc1)c1ccc2c(c1)CN1CC(=O)NC1=N2)C1CCCCC1`, the TEAD-luciferase reporter activity reads like this: (compound concentration: 200 nM) inactive: -1.33; (compound concentration: 2 uM) inactive: -0.421; (compound concentration: 10 uM) inactive: 3.73.

On to `CN1CCC(=C2c3ccccc3CCn3c(C=O)cnc32)CC1` [alcaftadine], for which the TEAD-luciferase reporter activity is inactive: -1.37 (compound concentration: 200 nM), inactive: -0.631 (compound concentration: 2 uM) and active: 5.85 (compound concentration: 10 uM).

On to `CC(=O)Nc1ccc(O)cc1` [acetaminophen, Kowa], for which the TEAD-luciferase reporter activity was inactive: -1.37 (compound concentration: 200 nM) and inactive: 0.605 (compound concentration: 10 uM).

For `CC(=O)Nc1ccc(O)cc1` [acetaminophen], the TEAD-luciferase reporter activity (compound concentration: 2 uM) was inactive: 0.23.

For the compound `O=C(CSCCO)NCCCOc1cccc(CN2CCCCC2)c1`, the TEAD-luciferase reporter activity (compound concentration: 200 nM) was inactive: 0.211, the TEAD-luciferase reporter activity (compound concentration: 2 uM) was inactive: -1.23 and the TEAD-luciferase reporter activity (compound concentration: 10 uM) is inactive: -0.594.

As to `O=C1Nc2ccc(Cl)cc2[C@@](/C=C/C2CC2)(C(F)(F)F)N1`, the TEAD-luciferase reporter activity was inactive: -2.02 (compound concentration: 200 nM), inactive: 0.588 (compound concentration: 2 uM) and inactive: 2.58 (compound concentration: 10 uM).

Take `CC(=O)Nc1c(I)c(C(=O)O)c(I)c(N(C)C(C)=O)c1I`: the TEAD-luciferase reporter activity (compound concentration: 200 nM) was inactive: -0.893, the TEAD-luciferase reporter activity (compound concentration: 2 uM) was inactive: -0.848 and the TEAD-luciferase reporter activity (compound concentration: 10 uM) is inactive: 2.16.

With `CN1CCCC1CCNS(=O)(=O)c1ccc2c(c1)CN(CC1CCCCC1)CC2` (centres undefined), the TEAD-luciferase reporter activity is, setting by setting: (compound concentration: 200 nM) inactive: 0.81; (compound concentration: 2 uM) inactive: 1.74; (compound concentration: 10 uM) inactive: -0.401.

For the compound `CC(=O)c1ccc(O)c(O)c1O`, the TEAD-luciferase reporter activity is inactive: 0.959 (compound concentration: 200 nM), inactive: 0.446 (compound concentration: 2 uM) and inactive: 3.56 (compound concentration: 10 uM).

In the case of `Cc1[nH]c(=O)c(C#N)cc1-c1ccc2nccn2c1` [lopri hydrochloride], for the setting “compound concentration: 200 nM”, the TEAD-luciferase reporter activity was inactive: -1.94.

Turning to `Cc1[nH]c(=O)c(C#N)cc1-c1ccc2nccn2c1` [lopri    hydrochloride], the TEAD-luciferase reporter activity (compound concentration: 2 uM) was inactive: -1.6.

`Cc1[nH]c(=O)c(C#N)cc1-c1ccc2nccn2c1` [lopri   hydrochloride]: under “compound concentration: 10 uM”, the TEAD-luciferase reporter activity is inactive: -0.0125.

With `Fc1ccc2[nH]c3c(c2c1)CN(CCc1ccncc1)CC3`, the TEAD-luciferase reporter activity runs as follows: (compound concentration: 200 nM) inactive: -1.36; (compound concentration: 2 uM) inactive: -1.23; (compound concentration: 10 uM) inactive: 0.266.

For `CCCCCc1c(-c2ccc3cc(OCc4nnn[nH]4)ccc3c2)n(Cc2ccccc2)c2ccccc12` [diaplasinin], the TEAD-luciferase reporter activity by setting is: (compound concentration: 200 nM) inactive: -0.528; (compound concentration: 2 uM) inactive: -0.568; (compound concentration: 10 uM) inactive: -0.958.

On to `Cc1[nH]c(/C=C2\C(=O)Nc3ccccc32)c(C)c1CCC(=O)O`, for which the TEAD-luciferase reporter activity is inactive: -1.81 (compound concentration: 200 nM) and inactive: -0.368 (compound concentration: 10 uM).

On to `Cc1[nH]c(/C=C2\C(=O)Nc3ccccc32)c(C)c1CCC(=O)O` [orantinib], for which the TEAD-luciferase reporter activity (compound concentration: 2 uM) was inactive: 0.2.

In the case of `C#Cc1cccc(Nc2ncnc3cc(OC)c(OCCCCCCC(=O)NO)cc23)c1`, the TEAD-luciferase reporter activity is active: 6.64 (compound concentration: 200 nM), active: 18.4 (compound concentration: 2 uM) and active: 40.2 (compound concentration: 10 uM).

As for `c1ccc(-c2nn3c(c2-c2ccnc4cc(OCCN5CCOCC5)ccc24)CCC3)nc1`, the TEAD-luciferase reporter activity runs as follows: (compound concentration: 200 nM) inactive: -1.8; (compound concentration: 2 uM) inactive: -1.41; (compound concentration: 10 uM) inactive: -2.99.

For `CC(C)=CCOc1cc(NC(=S)c2ccccc2C)ccc1Cl`, the TEAD-luciferase reporter activity is, setting by setting: (compound concentration: 200 nM) inactive: 0.256; (compound concentration: 2 uM) inactive: -0.755; (compound concentration: 10 uM) inactive: 0.244.

In the case of `O=C(O)c1cc(-c2ccccc2)nc2ccccc12`, the TEAD-luciferase reporter activity was inactive: -0.148 (compound concentration: 200 nM), inactive: -1.06 (compound concentration: 2 uM) and inactive: -0.282 (compound concentration: 10 uM).

Turning to `Cc1c2oc3c(C)ccc(C(=O)N[C@@H]4C(=O)N[C@H](C(C)C)C(=O)N5CCC[C@H]5C(=O)N(C)CC(=O)N(C)[C@@H](C(C)C)C(=O)O[C@@H]4C)c3nc-2c(C(=O)N[C@@H]2C(=O)N[C@H](C(C)C)C(=O)N3CCC[C@H]3C(=O)N(C)CC(=O)N(C)[C@@H](C(C)C)C(=O)O[C@@H]2C)c(N)c1=O`, the TEAD-luciferase reporter activity by setting is: (compound concentration: 200 nM) inactive: 0.816; (compound concentration: 10 uM) inactive: -2.44.

Regarding `Cc1c2oc3c(C)ccc(C(=O)N[C@@H]4C(=O)N[C@H](C(C)C)C(=O)N5CCC[C@H]5C(=O)N(C)CC(=O)N(C)[C@@H](C(C)C)C(=O)O[C@@H]4C)c3nc-2c(C(=O)N[C@@H]2C(=O)N[C@H](C(C)C)C(=O)N3CCC[C@H]3C(=O)N(C)CC(=O)N(C)[C@@H](C(C)C)C(=O)O[C@@H]2C)c(N)c1=O` [dactinomycin], for the setting “compound concentration: 2 uM”, the TEAD-luciferase reporter activity is inactive: -2.49.

Regarding `CC(C)OC(=O)CNC(=O)[C@H](CS)NC(=O)CC[C@H](N)C(=O)O` [Glutathione monoisopropyl ester], the TEAD-luciferase reporter activity was inactive: -2.04 (compound concentration: 200 nM), inactive: -0.237 (compound concentration: 2 uM) and inactive: -0.278 (compound concentration: 10 uM).

As to `CC(C)Nc1cc(-c2c[nH]c(C(=O)N[C@H](CO)c3cccc(Cl)c3)c2)c(Cl)cn1`, the TEAD-luciferase reporter activity by setting is: (compound concentration: 200 nM) inactive: 0.625; (compound concentration: 2 uM) inactive: -0.092; (compound concentration: 10 uM) inactive: 1.01.
